Results reported in the supplement of paper PMC10849652.
This is one part of the list.

By UniProt entry, the sequences of proteins in these tests, tags left out. Where a name states a change or a piece, a line headed by the entry shows the natural chain unless it says otherwise.
UniProt Q8N2M8: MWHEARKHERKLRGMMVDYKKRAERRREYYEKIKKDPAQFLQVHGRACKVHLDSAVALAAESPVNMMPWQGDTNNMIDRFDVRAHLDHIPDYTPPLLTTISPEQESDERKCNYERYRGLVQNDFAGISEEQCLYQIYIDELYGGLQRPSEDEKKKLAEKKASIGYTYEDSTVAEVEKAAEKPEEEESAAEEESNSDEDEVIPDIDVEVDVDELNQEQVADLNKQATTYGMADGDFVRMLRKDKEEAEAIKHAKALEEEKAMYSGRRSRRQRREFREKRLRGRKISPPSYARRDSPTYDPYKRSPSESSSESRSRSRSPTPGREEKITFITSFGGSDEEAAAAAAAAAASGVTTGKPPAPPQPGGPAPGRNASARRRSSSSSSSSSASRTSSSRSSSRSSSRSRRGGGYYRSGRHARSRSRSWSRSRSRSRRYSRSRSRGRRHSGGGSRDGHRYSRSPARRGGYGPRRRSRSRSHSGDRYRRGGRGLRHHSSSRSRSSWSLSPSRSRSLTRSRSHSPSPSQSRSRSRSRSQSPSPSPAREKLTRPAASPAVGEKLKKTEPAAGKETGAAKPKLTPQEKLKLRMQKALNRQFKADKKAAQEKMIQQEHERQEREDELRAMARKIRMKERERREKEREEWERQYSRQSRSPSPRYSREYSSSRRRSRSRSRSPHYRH
UniProt Q8IZ52: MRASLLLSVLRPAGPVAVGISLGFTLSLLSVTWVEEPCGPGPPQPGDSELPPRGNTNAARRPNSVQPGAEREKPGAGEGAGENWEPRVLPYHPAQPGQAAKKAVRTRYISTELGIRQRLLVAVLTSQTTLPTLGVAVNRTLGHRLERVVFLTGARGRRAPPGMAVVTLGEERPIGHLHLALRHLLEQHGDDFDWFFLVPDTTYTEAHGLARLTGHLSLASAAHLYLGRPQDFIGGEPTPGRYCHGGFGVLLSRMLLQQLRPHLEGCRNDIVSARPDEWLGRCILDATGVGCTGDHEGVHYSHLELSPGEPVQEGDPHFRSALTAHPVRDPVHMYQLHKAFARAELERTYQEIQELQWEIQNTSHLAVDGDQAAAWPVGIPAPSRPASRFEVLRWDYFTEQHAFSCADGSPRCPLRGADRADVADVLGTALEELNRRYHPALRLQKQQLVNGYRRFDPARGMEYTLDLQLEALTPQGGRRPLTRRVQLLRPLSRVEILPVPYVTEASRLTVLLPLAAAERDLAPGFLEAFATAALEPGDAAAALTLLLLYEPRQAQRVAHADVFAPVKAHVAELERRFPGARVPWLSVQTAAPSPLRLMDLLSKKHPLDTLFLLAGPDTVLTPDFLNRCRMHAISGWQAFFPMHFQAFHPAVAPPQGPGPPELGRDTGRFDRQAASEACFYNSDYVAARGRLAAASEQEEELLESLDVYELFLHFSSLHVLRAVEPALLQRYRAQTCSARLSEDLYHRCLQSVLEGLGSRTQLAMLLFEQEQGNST
UniProt Q9P003: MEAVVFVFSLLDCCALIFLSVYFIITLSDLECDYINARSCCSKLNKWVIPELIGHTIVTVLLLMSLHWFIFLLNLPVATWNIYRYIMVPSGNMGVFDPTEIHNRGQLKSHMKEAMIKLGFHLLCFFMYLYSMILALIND
UniProt Q8IZR5: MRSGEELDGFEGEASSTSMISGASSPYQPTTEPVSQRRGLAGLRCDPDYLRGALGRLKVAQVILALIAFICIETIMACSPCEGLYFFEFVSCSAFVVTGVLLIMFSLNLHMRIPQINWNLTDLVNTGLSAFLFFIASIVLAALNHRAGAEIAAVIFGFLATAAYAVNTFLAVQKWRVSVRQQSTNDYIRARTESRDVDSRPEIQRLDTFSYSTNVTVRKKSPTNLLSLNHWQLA
UniProt Q07065: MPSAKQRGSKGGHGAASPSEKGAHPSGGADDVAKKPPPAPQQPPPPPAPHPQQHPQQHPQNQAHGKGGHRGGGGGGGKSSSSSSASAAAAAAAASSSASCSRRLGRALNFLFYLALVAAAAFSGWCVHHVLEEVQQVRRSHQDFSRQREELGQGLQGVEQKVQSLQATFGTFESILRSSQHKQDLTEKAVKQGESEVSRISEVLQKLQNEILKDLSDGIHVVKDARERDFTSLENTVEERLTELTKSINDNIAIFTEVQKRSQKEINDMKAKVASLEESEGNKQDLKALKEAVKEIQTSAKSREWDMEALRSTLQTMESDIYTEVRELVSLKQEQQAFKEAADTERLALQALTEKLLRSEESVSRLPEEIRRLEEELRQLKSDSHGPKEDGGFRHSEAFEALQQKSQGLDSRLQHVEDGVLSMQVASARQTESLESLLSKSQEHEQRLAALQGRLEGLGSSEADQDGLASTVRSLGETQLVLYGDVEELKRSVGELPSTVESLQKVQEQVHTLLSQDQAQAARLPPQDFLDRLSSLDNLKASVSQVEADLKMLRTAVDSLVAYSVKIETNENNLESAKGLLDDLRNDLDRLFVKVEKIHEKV
UniProt P39059: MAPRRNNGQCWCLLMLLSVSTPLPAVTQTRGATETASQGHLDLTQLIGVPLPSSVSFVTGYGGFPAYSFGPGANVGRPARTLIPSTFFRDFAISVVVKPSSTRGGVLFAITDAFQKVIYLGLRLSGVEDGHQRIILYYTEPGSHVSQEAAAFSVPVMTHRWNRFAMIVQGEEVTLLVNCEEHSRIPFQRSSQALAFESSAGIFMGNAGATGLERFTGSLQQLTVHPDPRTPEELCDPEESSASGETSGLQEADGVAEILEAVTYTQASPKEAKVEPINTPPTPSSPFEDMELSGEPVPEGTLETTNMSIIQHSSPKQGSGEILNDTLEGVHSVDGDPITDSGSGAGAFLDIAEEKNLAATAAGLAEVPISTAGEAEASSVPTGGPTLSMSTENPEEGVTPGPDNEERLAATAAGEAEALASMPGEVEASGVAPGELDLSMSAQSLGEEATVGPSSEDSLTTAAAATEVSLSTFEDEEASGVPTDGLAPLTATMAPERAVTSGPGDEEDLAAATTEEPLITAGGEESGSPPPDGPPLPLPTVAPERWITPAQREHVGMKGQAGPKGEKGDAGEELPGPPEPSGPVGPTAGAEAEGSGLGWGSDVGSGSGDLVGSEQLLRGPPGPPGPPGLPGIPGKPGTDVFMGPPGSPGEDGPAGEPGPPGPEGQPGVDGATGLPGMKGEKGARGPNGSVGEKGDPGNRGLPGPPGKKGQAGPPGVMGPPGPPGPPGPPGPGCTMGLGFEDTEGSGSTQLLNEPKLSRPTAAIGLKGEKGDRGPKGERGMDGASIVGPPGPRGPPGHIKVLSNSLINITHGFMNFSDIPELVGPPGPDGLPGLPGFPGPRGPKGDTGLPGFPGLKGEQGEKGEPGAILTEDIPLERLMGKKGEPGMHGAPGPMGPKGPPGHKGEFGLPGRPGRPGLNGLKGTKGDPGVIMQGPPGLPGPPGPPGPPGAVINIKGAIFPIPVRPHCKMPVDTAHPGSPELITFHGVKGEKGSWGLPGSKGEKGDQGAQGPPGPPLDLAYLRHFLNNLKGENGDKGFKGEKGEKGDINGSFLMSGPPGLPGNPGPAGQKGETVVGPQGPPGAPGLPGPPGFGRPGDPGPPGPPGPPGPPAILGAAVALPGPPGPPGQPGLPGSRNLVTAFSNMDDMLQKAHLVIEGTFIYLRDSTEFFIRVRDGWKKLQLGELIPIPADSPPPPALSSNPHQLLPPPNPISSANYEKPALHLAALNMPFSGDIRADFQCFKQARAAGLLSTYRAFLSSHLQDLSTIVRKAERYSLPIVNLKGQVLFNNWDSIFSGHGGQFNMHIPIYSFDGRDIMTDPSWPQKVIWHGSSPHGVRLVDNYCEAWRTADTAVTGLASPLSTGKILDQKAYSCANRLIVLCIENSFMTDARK
UniProt O75503: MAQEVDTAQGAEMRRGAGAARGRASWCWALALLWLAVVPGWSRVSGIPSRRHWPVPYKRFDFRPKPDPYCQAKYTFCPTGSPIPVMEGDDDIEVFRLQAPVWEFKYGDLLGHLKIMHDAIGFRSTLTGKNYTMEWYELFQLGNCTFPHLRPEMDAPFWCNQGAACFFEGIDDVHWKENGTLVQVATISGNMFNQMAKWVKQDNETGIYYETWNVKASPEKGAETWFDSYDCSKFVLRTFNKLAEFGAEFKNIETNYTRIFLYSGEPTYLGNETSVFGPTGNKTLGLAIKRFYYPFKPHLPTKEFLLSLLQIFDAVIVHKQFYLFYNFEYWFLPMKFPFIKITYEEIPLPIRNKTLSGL
UniProt Q9NX76: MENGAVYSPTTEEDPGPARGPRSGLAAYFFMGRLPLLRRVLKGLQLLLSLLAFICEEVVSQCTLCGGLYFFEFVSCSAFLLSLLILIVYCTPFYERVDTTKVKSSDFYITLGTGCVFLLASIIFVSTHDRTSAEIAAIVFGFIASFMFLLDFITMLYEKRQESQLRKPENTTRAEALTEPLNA
UniProt Q9UFF9, whole entry, looked up: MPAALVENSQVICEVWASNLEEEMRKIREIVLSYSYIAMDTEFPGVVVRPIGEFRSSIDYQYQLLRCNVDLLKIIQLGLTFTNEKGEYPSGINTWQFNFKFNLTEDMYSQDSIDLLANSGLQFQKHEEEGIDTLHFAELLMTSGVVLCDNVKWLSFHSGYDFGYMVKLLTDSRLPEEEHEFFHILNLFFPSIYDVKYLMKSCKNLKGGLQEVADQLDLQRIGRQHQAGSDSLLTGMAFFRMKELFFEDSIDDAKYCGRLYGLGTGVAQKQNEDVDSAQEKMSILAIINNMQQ
UniProt Q9Y3Y2: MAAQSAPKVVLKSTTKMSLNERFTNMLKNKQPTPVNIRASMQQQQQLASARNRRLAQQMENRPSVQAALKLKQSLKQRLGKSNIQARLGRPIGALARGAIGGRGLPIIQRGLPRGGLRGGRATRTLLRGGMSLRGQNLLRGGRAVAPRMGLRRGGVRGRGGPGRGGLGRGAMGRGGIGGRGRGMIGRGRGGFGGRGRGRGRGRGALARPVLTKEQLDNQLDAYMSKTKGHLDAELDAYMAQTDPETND
UniProt Q9NWW5: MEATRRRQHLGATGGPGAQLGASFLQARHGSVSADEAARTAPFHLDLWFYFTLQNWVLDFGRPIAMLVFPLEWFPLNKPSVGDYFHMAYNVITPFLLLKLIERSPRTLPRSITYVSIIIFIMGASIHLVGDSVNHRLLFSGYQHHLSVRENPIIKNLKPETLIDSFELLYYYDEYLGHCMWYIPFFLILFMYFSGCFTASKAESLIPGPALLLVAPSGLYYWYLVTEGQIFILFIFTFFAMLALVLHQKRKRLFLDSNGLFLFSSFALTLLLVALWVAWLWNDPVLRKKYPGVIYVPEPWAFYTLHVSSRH
UniProt P05452, whole entry, looked up: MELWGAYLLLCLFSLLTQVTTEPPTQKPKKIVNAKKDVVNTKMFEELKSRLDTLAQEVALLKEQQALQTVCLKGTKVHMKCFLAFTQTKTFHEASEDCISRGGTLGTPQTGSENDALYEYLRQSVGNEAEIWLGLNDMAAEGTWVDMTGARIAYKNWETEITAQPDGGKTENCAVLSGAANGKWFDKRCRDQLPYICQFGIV
UniProt P38432, whole entry, looked up: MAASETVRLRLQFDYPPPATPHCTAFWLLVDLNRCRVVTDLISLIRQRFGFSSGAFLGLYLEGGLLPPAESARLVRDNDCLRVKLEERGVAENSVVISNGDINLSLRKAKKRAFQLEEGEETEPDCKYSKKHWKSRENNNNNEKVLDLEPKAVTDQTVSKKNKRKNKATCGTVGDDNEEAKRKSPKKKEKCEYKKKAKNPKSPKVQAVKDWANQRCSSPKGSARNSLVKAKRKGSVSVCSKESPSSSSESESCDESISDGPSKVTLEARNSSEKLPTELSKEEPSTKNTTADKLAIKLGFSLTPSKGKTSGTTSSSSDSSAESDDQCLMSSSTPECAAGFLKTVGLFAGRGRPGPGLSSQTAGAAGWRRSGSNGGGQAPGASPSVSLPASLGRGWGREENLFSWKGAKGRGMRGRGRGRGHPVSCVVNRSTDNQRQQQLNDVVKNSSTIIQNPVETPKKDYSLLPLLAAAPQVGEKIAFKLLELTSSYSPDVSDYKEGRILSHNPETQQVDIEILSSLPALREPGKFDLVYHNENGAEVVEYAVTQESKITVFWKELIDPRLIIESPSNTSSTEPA
UniProt P62633: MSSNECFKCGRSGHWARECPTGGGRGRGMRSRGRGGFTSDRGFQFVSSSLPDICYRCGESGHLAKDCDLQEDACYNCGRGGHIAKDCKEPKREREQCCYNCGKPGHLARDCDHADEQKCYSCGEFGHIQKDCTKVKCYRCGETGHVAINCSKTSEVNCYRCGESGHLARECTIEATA

How the values were obtained:
Test in all cases: log2 fold change, soluble protein after heating vs DMSO (PISA); higher = thermal stabilisation; K562 cells, 10 uM, 30 min; active = over 0.2 and 3.5 SD of the protein, either way, in both replicates (recomputed)
[1] = compound: NC(=O)Nc1cc(-c2cccc(F)c2)sc1C(=O)N[C@H]1CCCNC1
Procedure, shortened: (§1)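 K562 cells (2×10^6 cells/mL) were treated with 10 μM compound for 30 min, and aliquots were heated for 3 min over 48°C-58°C. Pooled aliquots were extracted in PBS with 0.5% NP-40 at 4°C, and the supernatant after 21,000xg for 90 min was measured by TMTpro 16plex LC-MS/MS with channel sums equalised. Reported thermal stability, relative to control samples and from duplicates, is a log2 fold change.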

[2] = compound: NC(=O)c1cnc(N[C@@H]2CCCC[C@@H]2N)nc1Nc1cccc(-n2nccn2)c1
Procedure, shortened: as §1

entinostat = compound: Nc1ccccc1NC(=O)c1ccc(CNC(=O)OCc2cccnc2)cc1 [entinostat]
Procedure, shortened: as §1

vorinostat = compound: O=C(CCCCCCC(=O)Nc1ccccc1)NO [vorinostat]
Procedure, shortened: as §1

citarinostat = compound: O=C(CCCCCCNC(=O)c1cnc(N(c2ccccc2)c2ccccc2Cl)nc1)NO [citarinostat]
Procedure, shortened: as §1

[3] = compound: O=C1NC(=O)C(c2cnc3ccccn23)=C1c1cn2c3c(cc(F)cc13)CN(C(=O)N1CCCCC1)CC2
Procedure, shortened: as §1

[4] = compound: c1cc(OCCN2CCCCC2)cc(-c2n[nH]c3ccc(-c4nnc[nH]4)cc23)c1
Procedure, shortened: as §1

entospletinib = compound: c1cn2cc(-c3ccc4cn[nH]c4c3)nc(Nc3ccc(N4CCOCC4)cc3)c2n1 [entospletinib]
Procedure, shortened: as §1

[5] = compound: NC1(c2ccc(-c3nc4ccn5c(=O)[nH]nc5c4cc3-c3ccccc3)cc2)CCC1
Procedure, shortened: as §1

[6] = compound: NCC(=O)Nc1ccc(-n2nc(C(F)(F)F)cc2-c2ccc3c(ccc4ccccc43)c2)cc1
Procedure, shortened: as §1

silmitasertib = compound: O=C(O)c1ccc2c(c1)nc(Nc1cccc(Cl)c1)c1ccncc12 [silmitasertib]
Procedure, shortened: as §1

Measured: log2 fold change

CLASRP (UniProt Q8N2M8)
inactive: [1] -0.024 | [2] -0.116 | entinostat -0.093 | vorinostat 0.097 | citarinostat 0.062 | [3] 0.115 | [4] 0.116 | entospletinib 0.029

CHPF (UniProt Q8IZ52)
inactive: [1] 0.087 | [2] -0.052 | [5] -0.032 | [6] 0.294 | entinostat 0.212 | citarinostat 0 | silmitasertib 0.048 | [3] 0.122 | [4] -0.142 | entospletinib 0.074

CNIH4 (UniProt Q9P003)
inactive: [1] -0.079 | [2] 0.103 | [5] 0.046 | [6] 0.094 | entinostat -0.126 | citarinostat 0.024 | silmitasertib 0.099 | [4] 0.037 | entospletinib -0.038

CMTM4 (UniProt Q8IZR5)
inactive: [1] -0.194 | [2] 0.2 | [5] -0.049 | [6] -0.1 | entinostat -0.057 | citarinostat 0.124 | silmitasertib 0.023 | [3] -0.168 | [4] -0.214 | entospletinib 0.045

CKAP4 (UniProt Q07065)
inactive: [1] 0.014 | [2] -0.005 | [5] -0.012 | [6] 0.027 | entinostat -0.04 | citarinostat -0.095 | silmitasertib -0.053 | [4] 0.135 | entospletinib -0.011

COL15A1 (UniProt P39059)
inactive: [1] 0.079 | [2] -0.028 | [5] 0.026 | [6] -0.014 | entinostat 0.052 | citarinostat 0.02 | silmitasertib 0.047 | [3] 0.098 | [4] -0.036 | entospletinib 0.059

CLN5 (UniProt O75503)
inactive: [1] -0.133 | [2] -0.41 | entinostat 0.02 | vorinostat -0.087 | silmitasertib 0.192 | [3] -0.014
active: [5] -0.858

CMTM6 (UniProt Q9NX76)
inactive: [1] -0.001 | [2] -0.05 | [5] 0.009 | [6] -0.041 | entinostat -0.056 | citarinostat -0.028 | silmitasertib -0.061 | [3] -0.042 | [4] -0.016 | entospletinib 0.127

CNOT8 (UniProt Q9UFF9)
inactive: [1] 0.07 | [5] -0.257 | [6] -0.216 | entinostat 0.032 | citarinostat -0.015 | silmitasertib -0.069 | [3] 0.049 | [4] -0.009 | entospletinib 0.046

CHTOP isoform 3 (UniProt Q9Y3Y2)
inactive: [1] 0.39 | [5] 0.39 | [6] 0.323 | entinostat -0.078 | silmitasertib 0.187 | [3] 0.252

CLN6 (UniProt Q9NWW5)
inactive: [1] 0.077 | [2] -0.229 | [5] 0.005 | [6] 0.34 | entinostat -0.164 | citarinostat 0.03 | silmitasertib 0.01 | [3] 0.026 | [4] -0.052 | entospletinib -0.066

CLIP1 isoform 2 (UniProt P30622)
inactive: [1] 0.021 | [5] -0.014 | [6] -0.06 | entinostat -0.058 | vorinostat -0.009 | citarinostat 0.008 | silmitasertib -0.056 | [3] 0.013 | [4] -0.056 | entospletinib 0.047

Quoted from the listing (4 entries):
CNOT8 (UniProt Q9UFF9)
inactive: [1] 0.07 | [5] -0.257 | [6] -0.216 | entinostat 0.032 | citarinostat -0.015 | silmitasertib -0.069 | [3] 0.049 | [4] -0.009 | entospletinib 0.046

CHTOP isoform 3 (UniProt Q9Y3Y2)
inactive: [1] 0.39 | [5] 0.39 | [6] 0.323 | entinostat -0.078 | silmitasertib 0.187 | [3] 0.252

CLN6 (UniProt Q9NWW5)
inactive: [1] 0.077 | [2] -0.229 | [5] 0.005 | [6] 0.34 | entinostat -0.164 | citarinostat 0.03 | silmitasertib 0.01 | [3] 0.026 | [4] -0.052 | entospletinib -0.066

CLIP1 isoform 2 (UniProt P30622)
inactive: [1] 0.021 | [5] -0.014 | [6] -0.06 | entinostat -0.058 | vorinostat -0.009 | citarinostat 0.008 | silmitasertib -0.056 | [3] 0.013 | [4] -0.056 | entospletinib 0.047

Later entries:

CLEC3B (UniProt P05452)
inactive: [1] 0.012 | [2] -0.01 | [5] -0.078 | [6] -0.167 | entinostat -0.111 | citarinostat -0.049 | silmitasertib 0.246 | [3] 0.068 | [4] 0.207 | entospletinib 0.225

COIL (UniProt P38432)
inactive: [1] 0.15 | [2] -0.056 | entinostat -0.003 | citarinostat 0.062 | [3] -0.157 | [4] -0.086 | entospletinib -0.197

CNBP (UniProt P62633)
inactive: [1] 0.111 | [2] 0.07 | [5] 0.251 | entinostat -0.06 | vorinostat -0.021 | citarinostat -0.069 | silmitasertib 0.023 | [4] -0.064 | entospletinib 0.046
